Source: patent US20260158140A1, “METHODS AND MATERIALS FOR IMPROVING T CELL THERAPIES” (Mayo Foundation for Medical Education and Research, priority 2021, published 2026)
“Also recorded” adds a separate entry of the source. At least one compound was matched to its structure with a doubt left.

Assays:
[1] = system: CART19 cells co-cultured with JeKo-1; assay: Cytokine measurement in co-culture supernatant (38-cytokine multiplex); type: cell-based, human; settings: CART19 + JeKo-1, 1 μM and 10 μM
[2] = system: patients with B cell malignancies; assay: Serum cytokine levels of patients on phase 1 clinical trial (NCT03037645), 38-cytokine multiplex; type: in vivo, human; settings: patients that maintained stable disease
CART19 cells = assay: CART19 proliferation: co-culture with irradiated JeKo-1, absolute CD3+ T cell counts by flow cytometry; type: cell-based, human; settings: for CART19 antigen specific proliferation (absolute CD3+ T cell count): irradiated JeKo-1 1:1, 24 hours (FIG. 1B)
Experimental: FIGS. 11A-11B. Proliferation. […] CART19 and irradiated JeKo-1 were co-cultured at 1:1 ratio for 24 hours in the presence of DMSO or vecabrutinib (1 μM or 10 μM) or ibrutinib (1 μM or 10 μM). Absolute CD3^+T cell counts were assessed by flow cytometry (*p<0.05, ****p<0.0001, two-way ANOVA). FIG. 11B) To further verify effect of BTK inhibition on CART19 proliferation, using different set of donors for CAR T cell production, CART19 and irradiated JeKo-1 were co-cultured at 1:1 ratio for 24 hours in the presence of DMSO or vecabrutinib (10 μM) or ibrutinib (10 μM).
For proliferation assays, CART19 cells were cultured with irradiated CD19^+ cell line Jeko-1 at a 1:1 ratio for 24 hours. Then, the cells were harvested and washed with flow buffer, following by surface staining with anti-hCD3 (eBioscience, San Diego, CA, USA) and LIVE/DEAD™ Fixable Aqua Dead Cell Stain Kit (Invitrogen, Carlsbad, CA, USA). Cells were washed twice with BD stain buffer (BD Horizon, Franklin Lakes, NJ). Cytometric data were acquired using a CytoFLEX Flow Cytometer (Beckman Coulter, Chaska, MN, USA). Gating was performed using FlowJo X10.0.7r2 software (Ashland, OR, USA). Absolute quantification was obtained using volumetric measurement or CountBright absolute counting beads (Invitrogen, Carlsbad, CA, USA). For Degranulation assays, T cells treated with DMSO or vecabrutinib were incubated with target cells at an effector: target ratio of 1:5. Antibodies against FITC-CD107a (BD Pharmingen, San Diego, CA, USA, Cat #555800), CD28 (BD Biosciences, San Diego, CA, USA, Cat #348040), CD49d (BD Biosciences, San Diego, CA, USA, Cat #340976), and monensin (Biolegend, San Diego, CA, USA, Cat #420701) were added prior to the incubation. After 4 hours, cells were harvested and stained with LIVE/DEAD™ Fixable Aqua. Cells were then fixed and permeabilized (FIX & PERM Cell Fixation & Cell Permeabilization Kit, Life Technologies, Oslo, Norway, Cat #GAS004) and stained for CD3 (clone UCHT1) APC (Cat #17-0038-42, eBioscience, San Diego, CA, USA).
Next, the effect of vecabrutinib on CART19 proliferation was assessed. CART19 cells were cocultured with irradiated JeKo-1 cells for 24 hours in the presence of vecabrutinib (1 μM or 10 μM), and the absolute count of CART19 was measured by flow cytometry and used as a surrogate for proliferation. […] The higher the percentage of CD107a cells means that these cells are active and degranulated.

[3] = system: CD19+ Mantle cell lymphoma cell line, Jeko-1; assay: CART19 cytotoxicity: co-culture of CART19 or UTD T cells with JeKo-1, percent killing; type: cell-based, human
Experimental: FIGS. 1A-1C. […] CART19 and live JeKo-1 were co-cultured at 1:1 ratio for 24 hours in the presence of DMSO or vecabrutinib (1 μM or 10 μM). The percentage of killing were assessed relative to control (****p<0.0001, two-way ANOVA). […] CART19 and irradiated JeKo-1 were co-cultured at 1:1 ratio for 24 hours in the presence of DMSO or vecabrutinib (1 μM or 10 μM). Absolute CD3^+ T cell counts were assessed by flow cytometry (**p<0.01, two-way ANOVA) . […] JeKo-1 target cells were incubated with CART19 at a 5:1 ratio with monensin, hCD49d, and hCD28 in the presence of vecabrutinib at the indicated concentrations for 4 hours. Cells were then analyzed using intracellular flow cytometric assessment of CD107a as a marker for degranulation.
FIG. 10. CART19 cytotoxicity in the presence of Vecabrutinib versus the irreversible BTK inhibitor, Ibrutinib. CART19 or control cells (UTD) were cocultured at different effector-to-target ratio (E:T) with Jeko-1 cell line with vecabrutinib at 1 μM or 10 μM, or ibrutinib at 1 μM. At 24 hours, live Jeko cells numbers was measured by flow cytometry and percent killing was calculated relative to control (*p<0.05, **p<0.01, two-way ANOVA). […]

NC(=O)[C@H]1CCN(c2ncnc(N)c2F)C[C@@H]1N1CCC[C@@H](Nc2cc(Cl)cc(C(F)(F)F)c2)C1=O [vecabrutinib]
IL-6 level in supernatant ([1]; 3 days (FIG. 2A)): significant and dose dependent decrease | IL-10 level in supernatant ([1]; 3 days (FIG. 2B)): significant and dose dependent decrease | MIP-1B level in supernatant ([1]; 3 days (FIG. 2C)): significant and dose dependent decrease | serum IP-10 level ([2]; four weeks after treatment vs baseline (FIG. 3A)): significantly reduced | serum MIP-1β level ([2]; four weeks after treatment vs baseline (FIG. 3B)): significantly reduced | serum TNF-α level ([2]; four weeks after treatment vs baseline (FIG. 3C)): significantly reduced | CART19 antigen specific proliferation (absolute CD3+ T cell count) (CART19 cells; 1 μM): no statistically significant effect | CART19 proliferation (absolute CD3+ T cell count) (CART19 cells; 1 μM, irradiated JeKo-1 1:1, 24 hours (FIG. 11A)): increases CART19 proliferation | CART19 proliferation (absolute CD3+ T cell count) (CART19 cells; 10 μM, different set of donors, irradiated JeKo-1 1:1, 24 hours (FIG. 11B)): significantly increased CART19 proliferation | CART19 antigen specific proliferation (absolute CD3+ T cell count) (CART19 cells; 10 μM): increases CART19 proliferation; also recorded: significant increase | CART19 proliferation (absolute CD3+ T cell count) (CART19 cells; 10 μM, irradiated JeKo-1 1:1, 24 hours (FIG. 11A)): no statistically significant effect | CART19 proliferation induced by irradiated JeKo-1 lymphoma cells (CART19 cells; concentration not stated in the sentence (FIGS. 11A and 11B)): enhanced CART19 proliferation | independent tumor activity of the inhibitor (without CART19 effect) ([3]; JeKo-1 with control UTD T cells, 1 μM or 10 μM, 24 hours (FIG. 1A)): did not exhibit independent tumor activity | CART19-mediated killing of Jeko-1 lymphoma cells ([3]; different E:T ratios, 24 hours, vecabrutinib 1 μM or 10 μM, ibrutinib 1 μM, normalized to target cells with inhibitor alone (FIG. 10)): significantly potentiated
